Laboratory results as given in patent US6730480B1, “Sphingosine kinase enzyme” (Johnson & Johnson Pharmaceutical Research and Development …, priority 1999, dated 2004).
Positions count from the first letter of the chain named. Some results were stated once for a whole list of compounds, not compound by compound.

B1: native sphingosine kinase: sphingosine kinase SK1 purified to homogeneity from human placenta (protein, UniProt Q9NYA1 1-384, looked up)
Sphingosine kinase 1: MDPAGGPRGVLPRPCRVLVLLNPRGGKGKALQLFRSHVQPLLAEAEISFTLMLTERRNHARELVRSEELGRWDALVVMSGDGLMHEVVNGLMERPDWETAIQKPLCSLPAGSGNALAASLNHYAGYEQVTNEDLLTNCTLLLCRRLLSPMNLLSLHTASGLRLFSVLSLAWGFIADVDLESEKYRRLGEMRFTLGTFLRLAALRTYRGRLAYLPVGRVGSKTPASPVVVQQGPVDAHLVPLEEPVPSHWTVVPDEDFVLVLALLHSHLGSEMFAAPMGRCAAGVMHLFYVRAGVSRAMLLRLFLAMEKGRHMEYECPYLVYVPVVAFRLEPKDGKGVFAVDGELMVSEAVQGQVHPNYFWMVSGCVEPPPSWKPQQMPPPEEPL
B2: recombinant sphingosine kinase: hSK expressed as GST fusion in E. coli BL21, thrombin-cleaved and purified (protein)
chain: B1 Sphingosine kinase 1 with V337M

Assay type: physicochemical, human
Settings: for Temperature up to which the enzyme is stable: 30 min, pH 7.4, 10% glycerol, 0.5M NaCl, 0.05% Triton X-100
Protocol: The effect of pH on the activity of the isolated sphingosine kinases was determined over the pH range 4.0 to 11.0 in 50 mM buffers (sodium acetate, pH 4.0-5.0; Mes, pH 6.0-7.0; Hepes, pH 7.0-8.2; Tris/HCl, pH 8.2-10.0: Caps, pH 10.0-11.0) at 37° C. pH stability was determined by assaying the residual activity after pre-incubation of the enzymes in the same buffers for 5 h at 4° C. Similarly, thermal stabilities were determined by assaying the residual activity after pre-incubation of the enzymes at various temperatures (4-80° C.) for 30 min at pH 7.4 (50 mM Tris/HCl containing 10% glycerol, 0.5 M NaCl and 0.05% Triton X-100). Substrate kinetics were analysed using Michaelis-Menten kinetics with a weighted non-linear regression program (Easterby, 1996). Since sphingosine and its analogues were added to the enzyme assays in mixed micelles with Triton X-100, where they exibit surface dilution kinetics (Buehrer and Bell. 1992), all K, and KC values obtained for these molecules were expressed as mol % of Triton X-100, rather than as bulk solution concentrations. For assays to determine the effect of calcium/calmodulin on sphingosine kinase activity, calcium and calmodulin were added to the standard assay mixtures containing 20 nM of isolated sphingosine kinase at final concentrations of 4 mM and 0.6 μM, respectively.
(§1) Thermal stabilities of the native and recombinant sphingosine kinases were determined by assaying the residual activity remaining after preincubation of the enzymes at various temperatures (4 to 80° C.) for 30 min at pH 7.4 (50 mM Tris/HCl containing 10% glycerol, 0.5M NaCl and 0.05% Triton X-100). The original activities of the native and recombinant sphingosine kinases were arbitrarily set at 100% and correspond to 2.65 kU and 7.43 kU, respectively.
as §1, with “pH” for “Thermal”, “pH's at 4° C.” for “temperatures (4 to 80° C.)”, “5 hr.” for “30 min at pH 7.4 (50 mM Tris/HCl containing 10% glycerol, 0.5M NaCl and 0.05% Triton X-100).”
The effect of pH on the activity of the native and recombinant sphingosine kinases were determined by assaying the activity over the pH range of 4 to 1 in 50 mM buffers (sodium acetate, pH 4.0-5.0; Mes, pH 6.0-7.0; Hepes, pH 7.0-8.2; Tris, pH 8.2-10.0; Caps. pH 10.0-11.0). The maximum activities of the native and recombinant sphingosine kinases were arbitrarily set at 100% and correspond to 2.65 kU and 7.43 kU, respectively.

| Molecule | Temperature up to which the enzyme is stable | Activity relative to maximum in the pH range 6.8 to 7.4 |
| --- | --- | --- |
| B1 | up to 37 °C | greater than 60% |
| B2 | up to 37 °C | greater than 60% |
